In this test the target is GluA1 subunit of native AMPA receptors from rat cerebellum (rat (endogenous in cerebellum)) (UniProt P19490). Nature of the test: affinity purification with mass spectrometry; rat cerebellum in 2% digitonin with (R,R)-2b and MPQX; GluA1 captured by 11B8 scFv–GFP–3C–Twin-Strep on Strep-Tactin XT (GluA2-containing receptors kept on the resin by 15F1 Fab), 3C release, FSEC; western blot and mass spectrometry. For orientation: Immunoblotting shows a protein as a band on a membrane.

Chains of the proteins cited; added tags and fusions are not shown. Residues count along the entry.
UniProt P19490, residues 19-907: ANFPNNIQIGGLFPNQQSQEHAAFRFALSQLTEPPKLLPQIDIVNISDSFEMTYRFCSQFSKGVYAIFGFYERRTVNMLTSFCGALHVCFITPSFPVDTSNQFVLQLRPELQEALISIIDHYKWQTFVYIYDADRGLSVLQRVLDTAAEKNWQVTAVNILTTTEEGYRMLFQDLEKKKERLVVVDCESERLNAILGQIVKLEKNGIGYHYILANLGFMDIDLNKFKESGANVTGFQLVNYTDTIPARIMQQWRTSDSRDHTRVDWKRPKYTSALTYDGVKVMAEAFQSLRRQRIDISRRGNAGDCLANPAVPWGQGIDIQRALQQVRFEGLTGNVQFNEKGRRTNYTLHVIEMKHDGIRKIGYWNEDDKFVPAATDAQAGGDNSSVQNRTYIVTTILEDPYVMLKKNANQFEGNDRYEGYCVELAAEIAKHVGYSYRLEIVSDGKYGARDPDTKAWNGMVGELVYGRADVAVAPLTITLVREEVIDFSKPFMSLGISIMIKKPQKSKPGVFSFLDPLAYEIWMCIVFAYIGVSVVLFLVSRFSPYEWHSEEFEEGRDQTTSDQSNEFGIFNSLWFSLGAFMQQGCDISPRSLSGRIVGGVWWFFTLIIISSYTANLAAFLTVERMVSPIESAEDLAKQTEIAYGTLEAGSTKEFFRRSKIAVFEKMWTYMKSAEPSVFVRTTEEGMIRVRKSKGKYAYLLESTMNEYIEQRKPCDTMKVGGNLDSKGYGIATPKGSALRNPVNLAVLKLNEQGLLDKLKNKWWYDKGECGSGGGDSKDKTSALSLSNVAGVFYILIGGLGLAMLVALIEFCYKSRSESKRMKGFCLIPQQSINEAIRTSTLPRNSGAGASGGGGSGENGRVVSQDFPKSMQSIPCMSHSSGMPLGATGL

The source of these data is paper PMC12422955.

These are yes or no findings as the source states them, for the method shown. Binding seen in cells or lysates may run through a third protein. These calls come from enrichment with a bait or labelling near it, and not all partners need be listed.

B1: noelin-3 (NOE3) (protein, UniProt P63057 24-478)
chain: QTLPSLVGLNTTRLSAPDTLTQISPKEGWQVYSSAQDPDGRCICTVVAPEQNLCSRDAKSRQLRQLLEKVQNMSQSIEVLNLRTQRDFQYVLKMETQMKGLKAKFRQIEDDRKTLMTKHFQELKEKMDELLPLIPVLEQYKTDAKLITQFKEEIRNLSSVLTGIQEEIGAYDYEELHQRVLSLETRLRDCMKKLTCGKLMKITGPITVKTSGTRFGAWMTDPLASEKNNRVWYMDSYTNNKIVREYKSIADFVSGAESRTYNLPFKWAGTNHVVYNGSLYFNKYQSNIIIKYSFDLGRVLAQRSLEYAGFHNVYPYTWGGFSDIDLMADEIGLWAVYATNQNAGNIVISQLNQDTLEVMKSWSTGYPKRSAGESFMICGTLYVTNSHLTGAKVYYSYSTKTSTYEYTDIPFHNQYFHISMLDYNARDRALYAWNNGHQVLFNVTLFHIIKTEDDT
Consider B1, for which the binding result is on record as “binds”.
